The list is a part of this screen's results and no random one: it is rich in T/C values a quarter to a half above the control, in often repeated tests (any T/C) and in doses without a T/C. Further doses and runs are listed elsewhere. T/C: endpoint of the treated group in % of that of the vehicle group. Some doses have a count of surviving animals in place of a T/C: the source holds a T/C of zero for them, seemingly a mark for toxic or unscored doses. Some doses without a T/C left all or most animals alive at the check, yet need not have been tolerated: survival well below the control is almost never listed, so the zero probably covers shortened survival too. Survivors were counted at the toxicity check, usually on the fifth day, unless a day is given; later deaths do not show. Schedules are NCI's codes, taken here to give the interval after Q, in days (D) or hours (H), and the number of doses after X. Some entries hold several experiments; the results are listed from low to high. Marks such as (2×) give the number of equal values in this list. Where survival is the endpoint, this PubChem deposit counts one and a half times the control or more as active, and values a quarter to a half above the control carry no call in these data; other NCI protocols may use other cut-offs. Some T/C values are followed by the survivors on the day toxicity was checked, most often the fifth; without a count, all were alive then.
Tested on: BDF1 mice, P388 leukemia ip, median survival T/C
Test: NCI In Vivo Anticancer Drug Screen. Data for tumor model P388 Leukemia (intraperitoneal) in B6D2F1 (BDF1) mice
Settings: T/C endpoint: median survival time, higher T/C = longer survival
Summary of the method: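 Transplantable tumour in mice; compound vs vehicle dosing; survival scored; ratio of treated to control reported.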

COc1cccc2c1C(=O)c1c(O)c3c(c(O)c1C2=O)C[C@@](O)(C(=O)CO)C[C@@H]3OC1CC(N)C(O)C(C)O1 (some centres not stated)
survivor count (dose: 8.0 mg/kg/injection, schedule: Q04DX003 (ip), vehicle: water): 7 of 8, 3 of 3, 8 of 8 (3×) | survivor count (dose: 8.0 mg/kg/injection, schedule: Q06HX004 (ip), vehicle: water): 6 of 8 | survivor count (dose: 8.4 mg/kg/injection, schedule: Q03HX008 (ip), vehicle: water): 8 of 8 | T/C (dose: 8.4 mg/kg/injection, schedule: Q04DX003 (ip), vehicle: water, evaluated on day 7): 166 and 236 % of control | T/C (dose: 8.4 mg/kg/injection, schedule: Q04DX003 (ip), vehicle: water, evaluated on day 62): 166 and 236 % of control | T/C (dose: 10.0 mg/kg/injection, schedule: Q01DX001 (ip), vehicle: saline, evaluated on day 5): 99, 104, 108, 141, 148, 154 (2×), 175, 178, 185, 187, 189, 202, 207 (2×), 233, 277, 424, 520, 530, 532, 554, 578, 584 % of control | T/C (dose: 10.0 mg/kg/injection, schedule: Q01DX001 (ip), vehicle: saline, evaluated on day 60): 99, 104, 108, 141, 148, 154, 175, 178, 185, 189, 202, 207 (2×), 221, 272, 277, 288, 293, 310, 424, 452, 482, 486, 515, 520, 527, 530, 531, 532, 533, 554, 565, 571 (2×), 578, 584 % of control | survivor count (dose: 10.0 mg/kg/injection, schedule: Q03HX008 (ip), vehicle: saline): 0 of 10 | survivor count (dose: 10.0 mg/kg/injection, schedule: Q03HX008 (sc), vehicle: saline): 0 of 10 | survivor count (dose: 12.0 mg/kg/injection, schedule: Q03HX008 (ip), vehicle: saline): 0 of 10 | survivor count (dose: 12.0 mg/kg/injection, schedule: Q03HX008 (sc), vehicle: saline): 0 of 10 | T/C (dose: 12.5 mg/kg/injection, schedule: Q01DX001 (ip), vehicle: saline, evaluated on day 5): 181, 197, 222, 362, 530 % of control | T/C (dose: 12.5 mg/kg/injection, schedule: Q01DX001 (ip), vehicle: saline, evaluated on day 60): 147 and 362 % of control | survivor count (dose: 12.5 mg/kg/injection, schedule: Q01DX001 (sc), vehicle: saline): 8 of 10 | T/C (dose: 13.33 mg/kg/injection, schedule: Q04DX003 (ip), vehicle: saline): 127 % of control | T/C (dose: 14.0 mg/kg/injection, schedule: Q04DX003 (ip), vehicle: water, evaluated on day 7): 128 % of control | T/C (dose: 14.0 mg/kg/injection, schedule: Q04DX003 (ip), vehicle: water, evaluated on day 62): 128 % of control | T/C (dose: 15.0 mg/kg/injection, schedule: Q01DX001 (ip), vehicle: saline, evaluated on day 5): 101, 117, 137, 164, 166, 172, 173, 185, 193, 194, 198, 213, 219, 221, 222, 225, 321, 519, 551, 553, 581, 586 % of control | T/C (dose: 15.0 mg/kg/injection, schedule: Q01DX001 (ip), vehicle: saline, evaluated on day 60): 101, 117, 137, 166, 172, 173, 193, 194, 196, 198 (2×), 213, 219, 222, 225, 233, 266, 274, 284 [9 of 10 alive], 321, 416 [8 of 10 alive], 482, 520, 529, 530, 531, 533 [9 of 10 alive], 538, 548, 551, 553, 566, 571, 581, 586, 600 % of control | T/C (dose: 15.0 mg/kg/injection, schedule: Q01DX001 (ip), vehicle: water, evaluated on day 7): 133 % of control | T/C (dose: 15.0 mg/kg/injection, schedule: Q01DX001 (ip), vehicle: water, evaluated on day 60): 133 % of control | T/C (dose: 15.0 mg/kg/injection, schedule: Q01DX001 (iv), vehicle: saline): 135 % of control | survivor count (dose: 15.0 mg/kg/injection, schedule: Q01DX001 (sc), vehicle: saline): 10 of 10 | T/C (dose: 16.0 mg/kg/injection, schedule: Q01DX001 (ip), vehicle: saline, evaluated on day 1): 498 % of control | T/C (dose: 16.0 mg/kg/injection, schedule: Q01DX001 (ip), vehicle: saline, evaluated on day 5): 254, 281, 304, 486 % of control | T/C (dose: 16.0 mg/kg/injection, schedule: Q01DX001 (ip), vehicle: saline, evaluated on day 6): 498 % of control | T/C (dose: 16.0 mg/kg/injection, schedule: Q01DX001 (ip), vehicle: saline, evaluated on day 8): 254 % of control | T/C (dose: 16.0 mg/kg/injection, schedule: Q01DX001 (ip), vehicle: saline, evaluated on day 11): 160 % of control | T/C (dose: 16.0 mg/kg/injection, schedule: Q01DX001 (ip), vehicle: saline, evaluated on day 90): 304 % of control | T/C (dose: 16.0 mg/kg/injection, schedule: Q04DX003 (ip), vehicle: water): 100 [5 of 6 alive], 103 [2 of 3 alive], 110 [5 of 6 alive], 113, 119, 125, 129 % of control | T/C (dose: 17.5 mg/kg/injection, schedule: Q01DX001 (ip), vehicle: saline, evaluated on day 5): 125, 168, 240 % of control | T/C (dose: 17.5 mg/kg/injection, schedule: Q01DX001 (ip), vehicle: saline, evaluated on day 60): 168 % of control | survivor count (dose: 17.5 mg/kg/injection, schedule: Q01DX001 (ip), vehicle: saline): 9 of 9 | survivor count (dose: 17.5 mg/kg/injection, schedule: Q01DX001 (sc), vehicle: saline): 7 of 10 | survivor count (dose: 20.0 mg/kg/injection, schedule: Q01DX001 (ip), vehicle: water): 6 of 7 | survivor count (dose: 20.0 mg/kg/injection, schedule: Q01DX001 (sc), vehicle: saline): 6 of 10 | T/C (dose: 22.5 mg/kg/injection, schedule: Q01DX001 (ip), vehicle: saline, evaluated on day 5): 57, 116, 130 (2×), 163, 174, 183, 197, 201 (2×), 213, 217, 234, 235, 435, 581, 584 % of control | T/C (dose: 22.5 mg/kg/injection, schedule: Q01DX001 (ip), vehicle: saline, evaluated on day 60): 116, 130 (2×), 163, 183, 197, 201 (2×), 213, 217, 221, 234, 235, 435, 581, 588 % of control | survivor count (dose: 22.5 mg/kg/injection, schedule: Q01DX001 (ip), vehicle: saline): 9 of 10 | T/C (dose: 32.0 mg/kg/injection, schedule: Q01DX001 (ip), vehicle: saline, evaluated on day 1): 69 % of control | T/C (dose: 32.0 mg/kg/injection, schedule: Q01DX001 (ip), vehicle: saline, evaluated on day 5): 64 and 77 % of control | T/C (dose: 32.0 mg/kg/injection, schedule: Q01DX001 (ip), vehicle: saline, evaluated on day 6): 69 % of control | survivor count (dose: 32.0 mg/kg/injection, schedule: Q01DX001 (ip), vehicle: saline): 10 of 10 | T/C (dose: 64.0 mg/kg/injection, schedule: Q01DX001 (ip), vehicle: saline, evaluated on day 1): 43 % of control | T/C (dose: 64.0 mg/kg/injection, schedule: Q01DX001 (ip), vehicle: saline, evaluated on day 5): 49 and 57 % of control | T/C (dose: 64.0 mg/kg/injection, schedule: Q01DX001 (ip), vehicle: saline, evaluated on day 6): 43 % of control | survivor count (dose: 64.0 mg/kg/injection, schedule: Q01DX001 (ip), vehicle: saline): 7 of 10 | T/C (dose: 128.0 mg/kg/injection, schedule: Q01DX001 (ip), vehicle: saline, evaluated on day 1): 35 % of control | T/C (dose: 128.0 mg/kg/injection, schedule: Q01DX001 (ip), vehicle: saline, evaluated on day 5): 43 % of control | T/C (dose: 128.0 mg/kg/injection, schedule: Q01DX001 (ip), vehicle: saline, evaluated on day 6): 35 % of control | survivor count (dose: 128.0 mg/kg/injection, schedule: Q01DX001 (ip), vehicle: saline): 0 of 10 | T/C (dose: 6670.0 micrograms/kg/injection, schedule: Q04DX003 (ip), vehicle: water): 125 % of control

From PubChem BioAssay AID328 (DTP/NCI, 2004)
